# ± gives the standard deviation of the averaged measurements. The entries are a selection whose mix differs from that of the whole data set.
# Sequences of proteins named here, by UniProt entry; tags and fusion partners are left off. A change or cut given only in a name is not applied to a line headed by its entry.
# UniProt Q6ZSZ5: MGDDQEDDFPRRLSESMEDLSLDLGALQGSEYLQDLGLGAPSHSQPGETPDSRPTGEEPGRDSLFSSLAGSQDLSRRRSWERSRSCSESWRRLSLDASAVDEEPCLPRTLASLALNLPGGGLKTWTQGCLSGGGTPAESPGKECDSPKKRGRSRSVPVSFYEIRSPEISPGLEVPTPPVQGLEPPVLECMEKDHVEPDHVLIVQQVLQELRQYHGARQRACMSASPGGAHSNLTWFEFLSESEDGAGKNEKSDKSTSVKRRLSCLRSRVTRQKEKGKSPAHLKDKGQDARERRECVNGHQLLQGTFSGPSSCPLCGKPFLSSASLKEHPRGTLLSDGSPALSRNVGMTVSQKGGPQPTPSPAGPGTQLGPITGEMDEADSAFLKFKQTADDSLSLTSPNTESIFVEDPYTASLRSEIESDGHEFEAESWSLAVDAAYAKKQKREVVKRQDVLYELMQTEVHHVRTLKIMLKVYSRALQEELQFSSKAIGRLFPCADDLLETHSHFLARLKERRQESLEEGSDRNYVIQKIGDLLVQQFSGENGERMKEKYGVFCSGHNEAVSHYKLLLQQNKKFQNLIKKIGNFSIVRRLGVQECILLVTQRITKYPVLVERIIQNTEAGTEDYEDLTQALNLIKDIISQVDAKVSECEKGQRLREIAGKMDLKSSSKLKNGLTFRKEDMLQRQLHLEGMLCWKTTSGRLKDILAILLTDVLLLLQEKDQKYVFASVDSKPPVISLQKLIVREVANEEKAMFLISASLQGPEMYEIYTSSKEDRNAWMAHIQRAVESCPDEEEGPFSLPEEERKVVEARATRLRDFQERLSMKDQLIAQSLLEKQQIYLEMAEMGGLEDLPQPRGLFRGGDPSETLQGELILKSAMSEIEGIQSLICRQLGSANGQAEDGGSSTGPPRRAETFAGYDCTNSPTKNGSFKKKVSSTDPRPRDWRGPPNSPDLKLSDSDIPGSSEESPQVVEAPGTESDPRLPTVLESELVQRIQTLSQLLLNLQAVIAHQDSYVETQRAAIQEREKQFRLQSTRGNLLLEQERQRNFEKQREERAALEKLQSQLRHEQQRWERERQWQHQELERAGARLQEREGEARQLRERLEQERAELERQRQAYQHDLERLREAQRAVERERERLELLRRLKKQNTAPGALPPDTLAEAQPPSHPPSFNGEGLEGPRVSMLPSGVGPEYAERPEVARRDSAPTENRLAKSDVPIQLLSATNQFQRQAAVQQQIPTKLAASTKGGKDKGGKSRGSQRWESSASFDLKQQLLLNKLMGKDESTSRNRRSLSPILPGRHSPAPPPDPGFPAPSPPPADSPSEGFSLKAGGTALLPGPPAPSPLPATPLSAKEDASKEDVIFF
# UniProt Q86XI2: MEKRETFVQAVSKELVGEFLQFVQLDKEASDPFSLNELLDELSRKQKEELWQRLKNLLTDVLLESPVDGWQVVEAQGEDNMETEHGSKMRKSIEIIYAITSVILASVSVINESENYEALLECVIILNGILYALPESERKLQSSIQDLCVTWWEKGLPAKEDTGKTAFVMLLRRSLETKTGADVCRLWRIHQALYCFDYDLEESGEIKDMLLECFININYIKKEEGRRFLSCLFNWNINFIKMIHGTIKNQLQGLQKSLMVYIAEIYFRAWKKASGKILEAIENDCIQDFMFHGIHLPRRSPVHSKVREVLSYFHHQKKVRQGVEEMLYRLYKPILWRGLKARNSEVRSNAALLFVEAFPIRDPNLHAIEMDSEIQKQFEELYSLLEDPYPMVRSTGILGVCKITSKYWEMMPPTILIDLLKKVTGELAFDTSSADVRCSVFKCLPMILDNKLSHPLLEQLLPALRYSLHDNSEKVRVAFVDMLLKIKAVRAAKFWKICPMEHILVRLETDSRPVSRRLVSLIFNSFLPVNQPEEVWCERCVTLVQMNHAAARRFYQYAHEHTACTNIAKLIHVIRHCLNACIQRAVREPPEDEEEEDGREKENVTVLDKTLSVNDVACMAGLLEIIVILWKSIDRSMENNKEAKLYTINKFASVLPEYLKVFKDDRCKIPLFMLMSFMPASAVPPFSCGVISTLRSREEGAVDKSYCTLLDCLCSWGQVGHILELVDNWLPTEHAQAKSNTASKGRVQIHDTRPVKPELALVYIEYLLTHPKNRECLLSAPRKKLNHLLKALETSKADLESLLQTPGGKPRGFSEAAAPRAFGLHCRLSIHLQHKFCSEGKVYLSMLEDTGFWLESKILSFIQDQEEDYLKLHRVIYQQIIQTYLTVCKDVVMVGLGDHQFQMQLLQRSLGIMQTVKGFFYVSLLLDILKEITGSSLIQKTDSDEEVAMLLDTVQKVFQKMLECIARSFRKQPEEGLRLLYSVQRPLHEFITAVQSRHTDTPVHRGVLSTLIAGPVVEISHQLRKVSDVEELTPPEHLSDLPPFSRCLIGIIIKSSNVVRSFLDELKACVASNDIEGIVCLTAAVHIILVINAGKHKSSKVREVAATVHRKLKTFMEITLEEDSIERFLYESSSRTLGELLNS
# UniProt Q6PJ69: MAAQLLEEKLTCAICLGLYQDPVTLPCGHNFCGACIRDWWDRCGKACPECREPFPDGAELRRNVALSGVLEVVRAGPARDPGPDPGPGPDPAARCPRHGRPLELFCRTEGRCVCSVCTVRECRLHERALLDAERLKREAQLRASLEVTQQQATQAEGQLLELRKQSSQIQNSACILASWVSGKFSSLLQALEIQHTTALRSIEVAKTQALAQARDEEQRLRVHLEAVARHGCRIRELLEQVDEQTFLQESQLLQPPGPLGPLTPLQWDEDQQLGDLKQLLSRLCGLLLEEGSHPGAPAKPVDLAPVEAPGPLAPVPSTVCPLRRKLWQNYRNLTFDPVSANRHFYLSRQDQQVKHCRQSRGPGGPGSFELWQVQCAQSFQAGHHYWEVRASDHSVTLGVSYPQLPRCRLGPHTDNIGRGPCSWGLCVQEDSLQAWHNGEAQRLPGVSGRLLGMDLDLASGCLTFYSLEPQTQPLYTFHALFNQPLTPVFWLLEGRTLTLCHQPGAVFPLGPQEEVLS
# UniProt Q7Z3C6: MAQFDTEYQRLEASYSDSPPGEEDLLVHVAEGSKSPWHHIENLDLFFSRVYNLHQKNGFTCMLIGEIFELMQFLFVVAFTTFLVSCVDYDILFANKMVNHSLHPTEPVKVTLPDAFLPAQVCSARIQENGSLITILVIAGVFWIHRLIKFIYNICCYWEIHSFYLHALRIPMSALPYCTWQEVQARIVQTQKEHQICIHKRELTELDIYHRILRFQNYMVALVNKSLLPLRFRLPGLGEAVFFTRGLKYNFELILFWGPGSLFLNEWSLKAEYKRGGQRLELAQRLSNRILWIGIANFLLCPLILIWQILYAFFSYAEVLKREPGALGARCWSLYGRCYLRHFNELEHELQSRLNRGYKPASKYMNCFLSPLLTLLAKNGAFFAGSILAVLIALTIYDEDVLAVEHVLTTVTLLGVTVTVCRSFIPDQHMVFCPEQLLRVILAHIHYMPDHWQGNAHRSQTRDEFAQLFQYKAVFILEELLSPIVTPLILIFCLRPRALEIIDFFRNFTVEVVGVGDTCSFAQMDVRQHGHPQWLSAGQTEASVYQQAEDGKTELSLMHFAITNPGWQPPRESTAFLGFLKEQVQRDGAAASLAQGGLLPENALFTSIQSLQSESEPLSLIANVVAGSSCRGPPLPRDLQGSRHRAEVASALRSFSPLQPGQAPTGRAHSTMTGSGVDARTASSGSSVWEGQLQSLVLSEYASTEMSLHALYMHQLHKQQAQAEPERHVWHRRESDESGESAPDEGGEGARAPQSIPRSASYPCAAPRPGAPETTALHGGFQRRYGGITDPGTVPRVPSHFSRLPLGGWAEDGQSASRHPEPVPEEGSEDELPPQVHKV
# UniProt Q6Y1H2: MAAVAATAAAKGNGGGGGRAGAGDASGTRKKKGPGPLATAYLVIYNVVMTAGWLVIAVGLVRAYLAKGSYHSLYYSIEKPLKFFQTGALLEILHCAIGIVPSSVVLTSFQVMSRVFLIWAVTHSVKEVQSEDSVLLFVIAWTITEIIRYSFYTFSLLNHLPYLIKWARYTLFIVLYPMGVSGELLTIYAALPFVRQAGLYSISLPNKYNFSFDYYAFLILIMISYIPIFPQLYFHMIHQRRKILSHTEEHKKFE
# UniProt Q6ZU80: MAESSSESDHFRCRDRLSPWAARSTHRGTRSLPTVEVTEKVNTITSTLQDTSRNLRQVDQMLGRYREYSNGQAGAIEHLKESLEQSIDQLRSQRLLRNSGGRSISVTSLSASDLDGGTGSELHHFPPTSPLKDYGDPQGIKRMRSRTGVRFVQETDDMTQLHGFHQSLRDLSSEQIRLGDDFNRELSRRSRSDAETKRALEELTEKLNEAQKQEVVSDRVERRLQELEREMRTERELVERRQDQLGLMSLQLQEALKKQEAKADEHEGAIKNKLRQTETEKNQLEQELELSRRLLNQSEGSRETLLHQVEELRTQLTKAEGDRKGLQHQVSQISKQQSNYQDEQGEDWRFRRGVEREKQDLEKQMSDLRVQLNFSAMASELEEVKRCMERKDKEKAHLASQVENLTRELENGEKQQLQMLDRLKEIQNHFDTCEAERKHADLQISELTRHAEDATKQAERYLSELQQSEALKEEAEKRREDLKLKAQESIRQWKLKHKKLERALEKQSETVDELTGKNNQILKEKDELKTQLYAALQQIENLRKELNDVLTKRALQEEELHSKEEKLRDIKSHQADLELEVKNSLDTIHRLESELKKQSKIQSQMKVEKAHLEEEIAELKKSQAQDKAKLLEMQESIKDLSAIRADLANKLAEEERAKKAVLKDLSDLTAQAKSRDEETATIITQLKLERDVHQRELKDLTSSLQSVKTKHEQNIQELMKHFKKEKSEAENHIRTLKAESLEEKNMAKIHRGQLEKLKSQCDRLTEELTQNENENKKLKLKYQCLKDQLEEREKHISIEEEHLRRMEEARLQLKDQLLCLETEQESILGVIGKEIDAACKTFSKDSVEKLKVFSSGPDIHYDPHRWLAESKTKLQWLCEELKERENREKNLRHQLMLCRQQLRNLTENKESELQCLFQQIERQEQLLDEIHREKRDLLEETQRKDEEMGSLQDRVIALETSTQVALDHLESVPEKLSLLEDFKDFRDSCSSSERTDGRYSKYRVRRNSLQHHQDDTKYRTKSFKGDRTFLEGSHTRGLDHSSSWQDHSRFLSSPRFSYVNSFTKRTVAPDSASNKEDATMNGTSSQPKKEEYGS
# UniProt Q86U44, whole entry: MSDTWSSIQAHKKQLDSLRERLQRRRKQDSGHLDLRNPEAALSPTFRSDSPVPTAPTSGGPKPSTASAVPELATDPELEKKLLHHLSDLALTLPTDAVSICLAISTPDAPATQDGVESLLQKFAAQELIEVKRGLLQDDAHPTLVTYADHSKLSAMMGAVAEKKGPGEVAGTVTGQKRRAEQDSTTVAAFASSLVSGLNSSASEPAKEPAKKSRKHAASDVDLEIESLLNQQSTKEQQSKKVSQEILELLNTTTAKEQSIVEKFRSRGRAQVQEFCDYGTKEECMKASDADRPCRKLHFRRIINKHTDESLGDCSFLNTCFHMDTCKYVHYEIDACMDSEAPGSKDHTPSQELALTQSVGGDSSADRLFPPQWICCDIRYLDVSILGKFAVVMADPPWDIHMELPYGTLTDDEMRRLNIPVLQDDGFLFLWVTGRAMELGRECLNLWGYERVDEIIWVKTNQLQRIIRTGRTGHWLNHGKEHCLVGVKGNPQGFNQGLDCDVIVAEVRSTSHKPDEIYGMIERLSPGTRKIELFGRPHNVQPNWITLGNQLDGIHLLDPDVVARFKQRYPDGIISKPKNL
# UniProt Q6ZSS7: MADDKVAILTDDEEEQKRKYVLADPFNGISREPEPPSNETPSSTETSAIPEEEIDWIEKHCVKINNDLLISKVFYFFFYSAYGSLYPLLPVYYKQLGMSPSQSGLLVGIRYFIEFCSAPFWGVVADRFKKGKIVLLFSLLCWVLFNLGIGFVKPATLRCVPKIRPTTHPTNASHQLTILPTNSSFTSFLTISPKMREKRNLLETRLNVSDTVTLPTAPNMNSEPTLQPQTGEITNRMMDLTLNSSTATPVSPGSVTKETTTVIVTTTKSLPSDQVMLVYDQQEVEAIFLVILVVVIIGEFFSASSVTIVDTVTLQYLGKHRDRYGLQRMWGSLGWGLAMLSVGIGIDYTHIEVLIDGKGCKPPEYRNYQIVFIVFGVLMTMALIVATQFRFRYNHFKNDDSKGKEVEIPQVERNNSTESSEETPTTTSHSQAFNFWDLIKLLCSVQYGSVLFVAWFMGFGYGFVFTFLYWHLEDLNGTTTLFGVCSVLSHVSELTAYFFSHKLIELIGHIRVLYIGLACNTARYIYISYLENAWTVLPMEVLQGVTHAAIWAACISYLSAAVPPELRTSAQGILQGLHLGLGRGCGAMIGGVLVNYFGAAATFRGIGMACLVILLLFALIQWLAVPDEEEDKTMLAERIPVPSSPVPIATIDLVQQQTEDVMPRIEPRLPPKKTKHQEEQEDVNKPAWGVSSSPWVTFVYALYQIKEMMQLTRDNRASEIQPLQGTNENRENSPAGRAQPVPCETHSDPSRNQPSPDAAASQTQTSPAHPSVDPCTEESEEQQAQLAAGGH
# Compound: Nc1ncnc2c1ncn2[C@@H]1O[C@H](COP(=O)(O)OP(=O)(O)OP(=O)(O)O)[C@@H](O)[C@H]1O [adenosine triphosphate]
# Experiment: NP40-soluble protein abundance relative to vehicle (solubility fold change) (ratio); higher = more soluble protein in presence of ATP
# How it was run: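 In three independent experiments, Jurkat crude lysate made by Dounce homogenisation was treated for 10 min at room temperature and then 3 min at 37 °C with eight concentrations ranging from 0.1 to 10 mM. It was then solubilised with 0.8% NP40 plus benzonase for 60 min at 4 °C and ultracentrifuged. The supernatant was TMT-labelled for LC-MS/MS, and each value is the fold change against the detergent-processed vehicle for the same replicate, using vsn-normalised intensities.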
Target,NP40-soluble protein abundance (concentration: 1mM),NP40-soluble protein abundance (concentration: 2mM),NP40-soluble protein abundance (concentration: 4mM),NP40-soluble protein abundance (concentration: 6mM),NP40-soluble protein abundance (concentration: 8mM),NP40-soluble protein abundance (concentration: 10mM)
UniProt Q6ZSZ5,1.06 ± 0.08,1.03 ± 0.044,1.08 ± 0.073,1.12 ± 0.092,1.04 ± 0.023,1.11 ± 0.065
UniProt Q7Z3U7 and related entries,0.96 ± 0.051,0.9642 ± 0.0046,0.987 ± 0.024,0.949 ± 0.015,0.973 ± 0.012,1 ± 0.028
SASS6 (UniProt Q6UVJ0),1.03 ± 0.039,0.987 ± 0.031,1.02 ± 0.038,0.978 ± 0.061,0.932 ± 0.067,0.963 ± 0.062
UniProt Q7Z2K6 and related entries,1.16 ± 0.19,1.03 ± 0.019,1.08 ± 0.25,1.09 ± 0.19,1.03 ± 0.21,0.997 ± 0.062
UniProt Q8IVB4,0.843 ± 0.063,0.799 ± 0.1,0.859 ± 0.1,0.913 ± 0.14,0.806 ± 0.18,0.899 ± 0.24
TMEM65 (UniProt Q6PI78),1.01 ± 0.093,0.977 ± 0.024,0.937 ± 0.075,0.93 ± 0.082,0.945 ± 0.047,0.968 ± 0.034
UniProt Q86TM6 and related entries,1 ± 0.0053,1.01 ± 0.029,0.981 ± 0.018,0.929 ± 0.013,0.931 ± 0.044,0.979 ± 0.053
NCAPG2 (UniProt Q86XI2),1.06 ± 0.13,1.09 ± 0.081,1.06 ± 0.067,0.997 ± 0.038,1.09 ± 0.017,1.1 ± 0.009
UniProt Q6V1X1 and related entries,1.06 ± 0.13,0.985 ± 0.14,1.01 ± 0.12,0.96 ± 0.14,1.02 ± 0.048,0.972 ± 0.079
PARS2 (UniProt Q7L3T8),1.06 ± 0.1,1.1 ± 0.024,1.14 ± 0.074,1.03 ± 0.1,1.08 ± 0.11,1.11 ± 0.065
UniProt Q6Y288,1 ± 0.086,0.987 ± 0.033,0.913 ± 0.013,0.907 ± 0.068,0.954 ± 0.014,0.96 ± 0.046
DYM (UniProt Q7RTS9),1.02 ± 0.04,0.952 ± 0.038,1 ± 0.076,0.954 ± 0.037,0.97 ± 0.074,0.971 ± 0.072
UniProt Q86UB9 and related entries,1.06 ± 0.18,1.01 ± 0.14,1.07 ± 0.097,1.11 ± 0.026,1.11 ± 0.086,1.11 ± 0.16
UniProt Q6SJ93 and related entries,0.99 ± 0.09,0.971 ± 0.076,0.971 ± 0.096,0.945 ± 0.11,0.93 ± 0.092,0.935 ± 0.1
TRIM65 (UniProt Q6PJ69),0.995 ± 0.051,0.981 ± 0.037,0.97 ± 0.043,0.963 ± 0.053,1 ± 0.038,0.986 ± 0.035
UniProt Q6W2J9 and related entries,1.08 ± 0.073,1.09 ± 0.15,1.11 ± 0.15,1.1 ± 0.13,1.14 ± 0.051,1.13 ± 0.12
UniProt Q6UUV7 and related entries,0.988 ± 0.055,1.05 ± 0.035,0.992 ± 0.013,0.92 ± 0.081,0.87 ± 0.027,0.942 ± 0.026
UniProt Q86V48 and related entries,0.991 ± 0.06,1.02 ± 0.054,1.08 ± 0.063,1.19 ± 0.083,1.17 ± 0.047,1.23 ± 0.037
APBB1IP (UniProt Q7Z5R6),0.967 ± 0.026,0.997 ± 0.045,0.965 ± 0.027,0.964 ± 0.048,0.943 ± 0.036,0.948 ± 0.031
ADAT2 (UniProt Q7Z6V5),0.922 ± 0.092,0.959 ± 0.065,0.936 ± 0.016,0.958 ± 0.07,0.932 ± 0.025,0.893 ± 0.11

Target,NP40-soluble protein abundance (concentration: 1mM),NP40-soluble protein abundance (concentration: 2mM),NP40-soluble protein abundance (concentration: 4mM),NP40-soluble protein abundance (concentration: 6mM),NP40-soluble protein abundance (concentration: 8mM),NP40-soluble protein abundance (concentration: 10mM)
ATAD2 (UniProt Q6PL18),1.31 ± 0.083,1.33 ± 0.088,1.37 ± 0.11,1.37 ± 0.2,1.16 ± 0.11,1.31 ± 0.19
UniProt Q6PI26 and related entries,1.02 ± 0.019,1.05 ± 0.041,0.997 ± 0.14,1.05 ± 0.057,1.04 ± 0.037,1.08 ± 0.087
UniProt Q86UK7 and related entries,1.05 ± 0.025,1.06 ± 0.041,1.1 ± 0.041,1.09 ± 0.034,1.11 ± 0.023,1.16 ± 0.045
UniProt Q6PJW8 and related entries,0.963 ± 0.053,0.963 ± 0.082,0.915 ± 0.04,1.03 ± 0.064,0.944 ± 0.084,0.938 ± 0.023
UniProt Q75N03 and related entries,1.04 ± 0.098,1.03 ± 0.069,1.05 ± 0.067,1.08 ± 0.083,1.07 ± 0.11,1.07 ± 0.13
UniProt Q7Z3C6 and related entries,0.972 ± 0.024,1.05 ± 0.056,1.042 ± 0.0084,1.02 ± 0.071,1.017 ± 0.0068,1.07 ± 0.044
UniProt Q86W50,0.971 ± 0.026,0.932 ± 0.032,0.935 ± 0.053,0.921 ± 0.023,0.936 ± 0.039,0.936 ± 0.046
UniProt Q7KZN9 and related entries,1.05 ± 0.32,1.02 ± 0.24,1.02 ± 0.17,0.98 ± 0.14,1.04 ± 0.17,0.971 ± 0.12
CDR2L (UniProt Q86X02),0.919 ± 0.089,0.945 ± 0.017,0.968 ± 0.091,0.981 ± 0.06,0.946 ± 0.096,0.985 ± 0.1
UniProt Q6Y1H2,0.969 ± 0.018,0.9698 ± 0.0047,0.981 ± 0.024,1.02 ± 0.072,0.931 ± 0.03,0.952 ± 0.029
UniProt Q7Z4G4 and related entries,1.03 ± 0.16,1.02 ± 0.051,1.01 ± 0.17,0.998 ± 0.11,1.02 ± 0.097,0.996 ± 0.07
UniProt Q86XN7 and related entries,0.854 ± 0.079,0.89 ± 0.046,0.862 ± 0.1,0.868 ± 0.057,0.881 ± 0.021,0.848 ± 0.12
RRM2B (UniProt Q7LG56),1.02 ± 0.064,0.98 ± 0.06,1 ± 0.085,0.906 ± 0.06,1.04 ± 0.052,1.01 ± 0.069
UniProt Q6PI47,0.675 ± 0.084,0.747 ± 0.065,0.885 ± 0.15,1.04 ± 0.088,1.14 ± 0.17,1.32 ± 0.23
FASTKD5 (UniProt Q7L8L6),1.04 ± 0.19,1.08 ± 0.24,0.984 ± 0.2,0.984 ± 0.059,1.03 ± 0.19,1.02 ± 0.13
UniProt Q7Z3K3 and related entries,1.04 ± 0.026,1.07 ± 0.034,1.1 ± 0.035,1.12 ± 0.019,1.16 ± 0.044,1.21 ± 0.042
UniProt Q6ULP2 and related entries,0.994 ± 0.045,0.999 ± 0.018,0.997 ± 0.027,1.04 ± 0.052,0.978 ± 0.025,1 ± 0.024
CCDC25 (UniProt Q86WR0),0.967 ± 0.039,0.953 ± 0.018,0.9219 ± 0.0087,0.979 ± 0.033,0.935 ± 0.014,0.939 ± 0.025
HOMER1 (UniProt Q86YM7),0.961 ± 0.093,0.988 ± 0.013,0.944 ± 0.054,1.02 ± 0.072,0.989 ± 0.049,1.03 ± 0.07
UniProt Q86W92 and related entries,1.05 ± 0.097,1.08 ± 0.034,1.07 ± 0.058,1.1 ± 0.089,1.07 ± 0.11,1.07 ± 0.018

# Reformatted: entries from further up.
Target	NP40-soluble protein abundance (concentration: 1mM)	NP40-soluble protein abundance (concentration: 2mM)	NP40-soluble protein abundance (concentration: 4mM)	NP40-soluble protein abundance (concentration: 6mM)	NP40-soluble protein abundance (concentration: 8mM)	NP40-soluble protein abundance (concentration: 10mM)
CDR2L (UniProt Q86X02)	0.919 ± 0.089	0.945 ± 0.017	0.968 ± 0.091	0.981 ± 0.06	0.946 ± 0.096	0.985 ± 0.1
UniProt Q6ULP2 and related entries	0.994 ± 0.045	0.999 ± 0.018	0.997 ± 0.027	1.04 ± 0.052	0.978 ± 0.025	1 ± 0.024
UniProt Q86W92 and related entries	1.05 ± 0.097	1.08 ± 0.034	1.07 ± 0.058	1.1 ± 0.089	1.07 ± 0.11	1.07 ± 0.018

# Following part.

Target,NP40-soluble protein abundance (concentration: 1mM),NP40-soluble protein abundance (concentration: 2mM),NP40-soluble protein abundance (concentration: 4mM),NP40-soluble protein abundance (concentration: 6mM),NP40-soluble protein abundance (concentration: 8mM),NP40-soluble protein abundance (concentration: 10mM)
UniProt Q7L5D6,0.947 ± 0.14,0.925 ± 0.069,0.893 ± 0.021,0.78 ± 0.095,0.906 ± 0.014,0.93 ± 0.033
UniProt Q6ZXV5 and related entries,0.951 ± 0.098,0.914 ± 0.05,0.888 ± 0.1,0.927 ± 0.092,0.91 ± 0.063,0.894 ± 0.092
UniProt Q86XN8 and related entries,0.965 ± 0.13,1.02 ± 0.25,0.995 ± 0.091,1.02 ± 0.021,0.9336 ± 0.0022,0.957 ± 0.042
UniProt Q86WV1 and related entries,0.967 ± 0.069,0.987 ± 0.074,0.988 ± 0.044,0.975 ± 0.053,0.941 ± 0.053,0.934 ± 0.044
UniProt Q6ZU80 and related entries,1.04 ± 0.08,1.07 ± 0.077,1.11 ± 0.063,1.09 ± 0.12,1.12 ± 0.073,1.11 ± 0.053
UniProt Q6PJT7-3|Q6PJT7-5|Q6PJT7-9|Q6PJT7,1.21 ± 0.067,1.3 ± 0.04,1.38 ± 0.038,1.49 ± 0.02,1.416 ± 0.005,1.431 ± 0.0067
METTL3 (UniProt Q86U44),1.04 ± 0.03,1.02 ± 0.028,1.01 ± 0.037,1.02 ± 0.058,1 ± 0.067,1 ± 0.031
MFSD6 (UniProt Q6ZSS7),0.873 ± 0.044,0.91 ± 0.071,0.882 ± 0.15,0.783 ± 0.13,0.805 ± 0.13,0.866 ± 0.16
UniProt Q86UX7 and related entries,0.996 ± 0.14,0.999 ± 0.11,0.988 ± 0.086,0.917 ± 0.15,0.998 ± 0.059,0.997 ± 0.044
UniProt Q709C8 and related entries,1.03 ± 0.079,1.03 ± 0.061,1.01 ± 0.054,0.958 ± 0.047,1.01 ± 0.027,0.993 ± 0.031
UniProt Q8IV53 and related entries,0.984 ± 0.072,0.982 ± 0.071,0.99 ± 0.049,0.976 ± 0.067,0.936 ± 0.041,0.954 ± 0.039
UniProt Q7Z3D6-2|H0YB09 and related entries,1.01 ± 0.046,1.02 ± 0.049,1.02 ± 0.066,1.04 ± 0.11,1.01 ± 0.085,1.03 ± 0.055
UniProt Q7L0Y3,1.02 ± 0.053,1.01 ± 0.025,0.998 ± 0.017,0.983 ± 0.059,1.03 ± 0.026,1.06 ± 0.031
TTC33 (UniProt Q6PID6),0.959 ± 0.057,0.956 ± 0.012,0.941 ± 0.017,0.967 ± 0.024,0.932 ± 0.017,0.92 ± 0.019
UniProt Q7Z2Z2,1 ± 0.03,0.99 ± 0.021,0.965 ± 0.028,0.953 ± 0.053,0.989 ± 0.032,0.972 ± 0.022
ASRGL1 (UniProt Q7L266),1.07 ± 0.011,1.051 ± 0.0044,1.04 ± 0.064,1.05 ± 0.026,0.981 ± 0.03,0.977 ± 0.03
UniProt Q7Z2W9 and related entries,1.26 ± 0.063,0.965 ± 0.028,0.979 ± 0.16,0.829 ± 0.28,0.98 ± 0.25,0.929 ± 0.27
UniProt Q6ZUT1 and related entries,0.986 ± 0.14,1.1 ± 0.027,1.13 ± 0.043,1.11 ± 0.05,1.09 ± 0.089,1.09 ± 0.11
RBBP6 (UniProt Q7Z6E9),1.14 ± 0.069,1.17 ± 0.054,1.22 ± 0.067,1.35 ± 0.056,1.35 ± 0.064,1.36 ± 0.045
UniProt Q75QN2 and related entries,1.11 ± 0.17,1.06 ± 0.091,1.09 ± 0.065,1.01 ± 0.082,1.17 ± 0.016,1.14 ± 0.034

# Reference: the supplement of paper PMC6411743
